Literature values as cited in patent publication US20230277575A1 (priority 2020, published 2023).
For at least one compound, name, drawing or mass did not settle the structure.

System: SARS-CoV-2
Conditions: known value for comparison; cited from earlier work

In the case of `CCC(CC)COC(=O)[C@H](C)N[P@](=O)(OC[C@H]1O[C@@](C#N)(c2ccc3c(N)ncnn23)[C@H](O)[C@@H]1O)Oc1ccccc1` [Remdesivir], the IC50 is listed as 1000 nM.
